Results taken from PubChem BioAssay AID504444 (National Center for Advancing Translational Sciences (NCATS), 2011).
“And” between values parts separate entries of the source, which are not always exact repeats. Equal values may be shown once. In all, about 360,000 compounds went through this assay and about 7,500 (2.1%) were called active. This list was built around the results that the source calls inconclusive (neither active nor inactive); the mix of calls is not that of the screen. Calls follow the shape of the dose curve; as a rule, active = well fitted inhibition curve with a large enough effect; inconclusive = small, poorly fitted or top-dose-only effect, or effect the other way; inactive = flat fitted curve, though single readings scatter. Potencies of inconclusive entries are doubtful fits and often do not repeat. Some structures have more than one record in an assay (separate samples or runs), and their calls can disagree. Square brackets hold non-standard residues; d marks the D form. Peptide text beside a SMILES is read from it. NMeY = CN[C@@H](Cc1ccc(O)cc1)C(=O)O; NMeF = CN[C@@H](Cc1ccccc1)C(=O)O; 2Abz = Nc1ccccc1C(=O)O

assay: Nrf2 qHTS screen for inhibitors; details: A549 ARE-Fluc reporter, luciferase luminescence, 18-24 h; activity change, negative = inhibition: at 46 µM (top of the series); also: nearly all actives have a fitted effect of over 60% in size
Summary of the method: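 Reporter: ARE-Fluc in A549. Exposure: 18-24 h, 37 °C, 5% CO2, 5% FBS OPTI-MEM. Readouts: fluorescent cytotoxicity (CellTiter-Fluor), then luminescent Nrf2 signal after BugLite.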
% is scaled to controls: 0 for no effect and ±100 for the full control effect; potency is read from the fitted curve at half-maximal effect.

SMILES | Potency | activity change, negative = inhibition
CC(C)C[C@@H]1NC(=O)[C@H](Cc2ccccc2)N(C)C(=O)[C@H](C)NC(=O)c2ccccc2NC(=O)[C@H](Cc2ccc(O)cc2)N(C)C1=O (cyclo([2Abz]A[NMeF]L[NMeY])) | active: 23.1 µM | –
c1ccc(CSc2nc3ncccn3n2)cc1 | inconclusive: 1.64 µM [activator, full curve, poor fit] | –
CCn1c2c(c(=N)c3c1CCC3)CCCC2 | inconclusive: 14.6 µM [falling, partial curve, poor fit] | –
CCN(CC)c1ccc(/C=N/Nc2nn[nH]n2)cc1 | – | inactive: 10.3%
NC(=O)c1c[nH]c2ccccc12 | inconclusive: 1.64 µM [falling, partial curve, poor fit] | –
Cc1cc(C)c(NC(=O)c2ccc(CN3CCc4ccccc4C3)cc2)c(C)c1 | active: 23.1 µM | –
CC1(C)Cc2c(c(N3CCOCC3)nc3snc(Br)c23)CO1 | inconclusive: 18.4 µM [falling, single point] | –
CCc1ccc(OCC(=O)NCC(c2ccc(Cl)cc2)N2CCOCC2)cc1 (stereo not given) | inconclusive: 18.4 µM [falling, single point] | –
CC(C)n1ncc2c(C(=O)Nc3cccc(C#N)c3)cc(C3CC3)nc21 | inconclusive: 18.4 µM [falling, single point] | –
Cc1cc(C(=O)N2CCCC(N3CCN(c4cccc(Cl)c4)CC3)C2)n(C)n1 (stereo not given) | inconclusive: 23.1 µM [falling, partial curve, poor fit] | –
Cc1cc(C)n(-c2ccc(C(=O)Nc3nnc(C)s3)cc2)n1 | inconclusive: 23.1 µM [falling, partial curve, poor fit] | –
COc1ccc(C)cc1N(C(=O)COc1cccc(F)c1)c1nc2ccccc2s1 | inconclusive: 2.91 µM [activator, single point] | –
Cc1ccc(S(=O)(=O)N2CCN(c3c([N+](=O)[O-])cc(C(F)(F)F)cc3[N+](=O)[O-])CC2)cc1 | – | inactive: -8.68%
Cc1nn(-c2ccccc2)c2c1cc1c(=O)[nH]c(=O)nc-1n2-c1cccc(C(F)(F)F)c1 | inconclusive: 23.1 µM [falling, single point] | –
CCN1CCCc2cc(CN(CCN3CCOCC3)C(=S)Nc3ccccc3C)ccc21 | inconclusive: 2.59 µM [falling, full curve, poor fit] | –
O=S1(=O)CCOC[C@H](Cc2ccccc2)N1Cc1ccc(Cl)cc1 | inconclusive: 29.1 µM [falling, single point] | –
CCN(CCNC(=O)C1CCCN(Cc2nc(-c3ccc(OC)cc3)oc2C)C1)c1ccccc1 (stereo not given) | inconclusive: 29.1 µM [falling, single point] | –
COc1ccccc1OCc1cc(C(=O)N2CC3C[C@@H]4CC2C[C@H](C3)C4)no1 | inconclusive: 29.1 µM [activator, single point] | –
CC(C)n1cc(/C=C/c2cc[n+](C)cc2)c2ccccc21 | active: 2.31 µM | –
O=C(NNC(=O)c1ccccc1Br)c1ccccc1Cl | inconclusive: 20.6 µM [activator, single point] | –
CSc1nsc(SCC(=O)Nc2ccc(O)c(C(=O)O)c2)n1 | – | inactive: 2.32%
CCn1c(N2CCC(Cc3ccccc3)CC2)nc2c1c(=O)[nH]c(=O)n2C | inconclusive: 20.6 µM [falling, partial curve, poor fit] | –

One compound at a time, from the list above.
CCn1c(N2CCC(Cc3ccccc3)CC2)nc2c1c(=O)[nH]c(=O)n2C as listed: Potency: inconclusive: 20.6 µM [falling, partial curve, poor fit]
Cc1cc(C(=O)N2CCCC(N3CCN(c4cccc(Cl)c4)CC3)C2)n(C)n1 (stereo not given) as listed: Potency: inconclusive: 23.1 µM [falling, partial curve, poor fit]
CCN(CCNC(=O)C1CCCN(Cc2nc(-c3ccc(OC)cc3)oc2C)C1)c1ccccc1 (stereo not given) as listed: Potency: inconclusive: 29.1 µM [falling, single point]

(cont.)

SMILES | Potency | activity change, negative = inhibition
Cc1ccc2c(c1)-c1onc(C(=O)N3CCN(c4cccc(C)c4C)CC3)c1CO2 | inconclusive: 11.6 µM [activator, partial curve] | –
CCCC1C2CN(C(C)C)CC=C2C(C#N)=C(N)C1(C#N)C#N (stereo not given) | active: 6.51 µM | –
Cc1ccc(Cl)cc1N1CCN(C(=O)C(C)n2ncn3cccc3c2=O)CC1 (stereo not given) | inactive and active: 18.4 µM | –
CCCCN(CCCC)C(=O)c1cc2c(=O)n3ccccc3nc2s1 | – | inactive: -16.1%
Cc1sc(NC(=O)CSc2nc(N)n(CC(=O)c3ccccc3)n2)c(C#N)c1C | inconclusive: 14.6 µM [falling, partial curve, poor fit] | –
O=C1CCc2cc(NS(=O)(=O)c3ccc(F)cc3)cc3c2N1CCC3 | inconclusive: 20.6 µM [falling, partial curve] | –
Cc1nc2cc(C(=O)NCc3ccc4c(c3)OCO4)ccc2n1-c1ccc(Br)cc1 | inconclusive: 29.1 µM [falling, single point] | –
Nc1ccccc1NC(=O)NC(=O)c1ccccc1 | inconclusive: 8.2 µM [activator, partial curve, poor fit] | –
Cc1ccc(NC(=O)CCNC(=O)c2ccc([N+](=O)[O-])cc2)cc1S(=O)(=O)N(C)C | inconclusive: 20.6 µM [falling, partial curve, poor fit] | –
CC(C)CC(CSc1ccc(Br)cc1)N1CCN(C)CCC1=O (stereo not given) | inconclusive: 11.6 µM [activator, partial curve, poor fit] | –
C[C@H](CO)N1C[C@H](C)[C@@H](CN(C)C(=O)NC2CCCCC2)Oc2ccc(NC(=O)Nc3ccc(C(F)(F)F)cc3)cc2C1=O | inconclusive: 29.1 µM [falling, single point] | –
COc1ccc(C(=O)Nc2nc3ccccc3s2)c(OC)c1 | active: 7.31 µM | –
CC1=CN2C(=N)/C(=C/c3ccc(C)o3)C(=O)N=C2S1 | inconclusive: 0.731 µM [activator, partial curve, poor fit] | –
O=C(NCCc1ccc(Cl)cc1)c1ccc(CS(=O)Cc2ccc(Cl)cc2)o1 (stereo not given) | active: 25.9 µM | –
CCCNC(=O)Cc1c(O)c2ccccc2[nH]c1=O | – | inactive: 1.48%
C=CC[C@@H](CC(=O)OC(C)(C)C)C(=O)OC[C@H]1CCCN1C(=O)[C@@H](CC=C)CC(=O)N[C@H](CO)Cc1ccccc1 | – | inactive: 5.08%
CCc1ccc(Nc2nc3c(S(=O)(=O)c4cccc(Cl)c4)nnn3c3ccsc23)cc1 | inconclusive: 29.1 µM [activator, single point] | –
CCN(c1ccccc1)S(=O)(=O)c1c(C)noc1C | – | inactive: -0.0165%
COC(=O)CCNC(=O)c1ccc2nc(Cc3ccc(OC)c(OC)c3)oc2c1 | inconclusive: 6.51 µM [activator, single point] | –
Cc1cccc(N=C2Sc3nc4c(C)c(C)ccc4cc3CN2CCN2CCOCC2)c1 | inconclusive: 20.6 µM [falling, partial curve, poor fit] | –
Cc1cc(C)c(-c2csc(NC(=O)C3=NN(c4ccccc4)C(=O)CC3)n2)c(C)c1 | inconclusive: 23.1 µM [falling, partial curve, poor fit] | –
Nc1cc2[nH]c(=O)c3ccccc3c2cc1Br | inconclusive: 7.31 µM [falling, partial curve, poor fit] | –

SMILES | Potency | activity change, negative = inhibition
COC(=O)c1c(NC(=O)c2c(OC)cccc2OC)sc2c1CCCC2 | – | inactive: -20.6%
COc1ccc(S(=O)(=O)NCc2ccccn2)cc1NC(=O)c1ccccc1 | inconclusive: 20.6 µM [activator, partial curve] | –
O=[N+]([O-])c1ccc(C2=NN(CCO)C(=Nc3ccc(OC(F)(F)F)cc3)SC2)cc1 | inconclusive: 20.6 µM [activator, partial curve] | –
COc1ccc(C)cc1S(=O)(=O)N1CCCC(C(=O)N2CCN(c3ccccc3F)CC2)C1 (stereo not given) | inconclusive: 20.6 µM [falling, single point] | –
O=C(COc1ccccc1)NNC(=S)NC(=O)c1ccc(Cl)cc1Cl | inconclusive: 29.1 µM [falling, single point] | –
COc1ccccc1NS(=O)(=O)c1cc(NC(=O)Nc2ccccc2)ccc1N1CCCCC1 | – | inactive: -17.6%
CCn1ccnc1CN(C)Cc1cn(-c2cc(C)ccc2C)nc1-c1ccccc1 | inconclusive: 29.1 µM [falling, single point] | –
C=Cc1ccc(Cn2c(C(=O)OC)cc3sc(C)cc32)cc1 | inconclusive: 8.2 µM [activator, partial curve, poor fit] | –
C=C(C)CNC(=S)N/N=C(\C)c1ccc(-n2ccnc2)cc1 | – | inactive: 0.143%
OCCSc1nc(-c2ccccc2)nc2c1CCC2 | inconclusive: 16.4 µM [falling, partial curve] | –
Clc1ccc(COc2cccc(CNCc3ccncc3)c2)cc1 | inconclusive: 20.6 µM [falling, single point] | –
Cc1c(C(=O)N2CCC2)oc2ccc(Cl)cc12 | inconclusive: 29.1 µM [activator, partial curve, poor fit] | –
CN1CCN(c2cc(N3CCN(C(=O)c4ccco4)CC3)c3c4c(onc24)-c2ccccc2C3=O)CC1 | inconclusive: 29.1 µM [falling, single point] | –
CCCC(=O)Nc1ccc2c(c1)nc(CN1CCN(C(=O)OCC)CC1)n2C | – | inactive: -13.6%
O=C1CCN(S(=O)(=O)c2ccc(Cl)cc2)N1 | inconclusive: 2.59 µM [activator, partial curve, poor fit] | –
CC1=CC(C)(C)n2c(O)c(N=NC(N)=S)c3cc(C)cc1c32 | inconclusive: 7.31 µM [falling, full curve, poor fit] | –
Cc1ccccc1NCC(=O)c1ccc(Br)cc1 | – | inactive: -22.4%
O=C(NNS(=O)(=O)c1ccc([N+](=O)[O-])cc1)c1cnn(-c2ccccc2)c1-n1cccc1 | – | inactive: -19.7%
O=C(c1ccco1)N1CCN(c2ncnc3c(-c4ccccc4)nsc23)CC1 | inconclusive: 29.1 µM [falling, single point] | –
COc1cccc(-n2cc(C(=O)Nc3ccccc3C(N)=O)c3ccccc3c2=O)c1 | – | inactive: -11.6%
CSCC(=O)N1CCC(Oc2cccc(C(=O)NCc3ccccn3)c2)CC1 | inconclusive: 32.6 µM [falling, partial curve, poor fit] | –
